These are yes or no findings as the source states them, for the method shown. Binding seen in cells or lysates may run through a third protein. A result given as binding can be weak or reduced; the word gives no strength.
Target: Flag-tagged PDI-WT (UniProt P07237)
Assay: co-IP; Flag-M2 affinity resin on COS-7 lysates (50 mM TrisHCl, 150 mM NaCl); PDI-Flag co-expressed with one sGC subunit or one α construct; Western blot, densitometry of bound over input

The chains behind the UniProt entries cited, without tags or fusion partners. Where a name states a change or a piece, a line headed by the entry shows the natural chain unless it says otherwise. Residues count along the entry.
UniProt P07237, residues 18-508: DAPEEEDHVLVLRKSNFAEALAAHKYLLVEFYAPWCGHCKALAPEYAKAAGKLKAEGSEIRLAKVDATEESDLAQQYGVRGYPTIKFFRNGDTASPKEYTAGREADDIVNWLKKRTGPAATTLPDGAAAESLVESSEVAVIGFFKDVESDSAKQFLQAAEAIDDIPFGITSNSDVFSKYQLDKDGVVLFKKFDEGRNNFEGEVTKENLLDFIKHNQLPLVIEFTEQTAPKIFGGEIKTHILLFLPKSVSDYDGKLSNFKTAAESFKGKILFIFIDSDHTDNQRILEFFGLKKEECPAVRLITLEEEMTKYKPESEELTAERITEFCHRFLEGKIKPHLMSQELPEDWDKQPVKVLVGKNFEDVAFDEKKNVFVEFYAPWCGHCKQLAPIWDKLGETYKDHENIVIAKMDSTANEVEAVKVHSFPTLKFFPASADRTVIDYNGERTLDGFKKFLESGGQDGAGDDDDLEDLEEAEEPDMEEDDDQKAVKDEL
UniProt P19686: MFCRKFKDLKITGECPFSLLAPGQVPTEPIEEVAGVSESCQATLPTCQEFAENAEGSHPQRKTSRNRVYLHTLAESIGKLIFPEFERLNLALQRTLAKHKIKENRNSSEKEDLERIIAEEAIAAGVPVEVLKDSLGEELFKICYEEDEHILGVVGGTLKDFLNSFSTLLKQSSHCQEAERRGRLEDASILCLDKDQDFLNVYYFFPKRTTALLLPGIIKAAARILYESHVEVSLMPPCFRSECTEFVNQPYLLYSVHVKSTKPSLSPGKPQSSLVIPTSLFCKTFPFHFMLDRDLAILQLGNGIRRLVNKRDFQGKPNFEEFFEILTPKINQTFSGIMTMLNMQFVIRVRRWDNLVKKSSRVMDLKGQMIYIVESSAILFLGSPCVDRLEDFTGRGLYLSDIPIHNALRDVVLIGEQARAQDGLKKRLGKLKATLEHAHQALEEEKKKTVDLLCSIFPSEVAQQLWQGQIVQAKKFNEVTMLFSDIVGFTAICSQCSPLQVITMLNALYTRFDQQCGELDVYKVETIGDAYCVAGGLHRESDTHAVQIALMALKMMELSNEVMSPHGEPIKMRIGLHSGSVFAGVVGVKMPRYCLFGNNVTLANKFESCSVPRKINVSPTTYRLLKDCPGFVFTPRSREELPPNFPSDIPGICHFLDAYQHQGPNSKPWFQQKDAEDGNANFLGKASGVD

binding	Substance
binds	sGC α catalytic domain alone (αCatDom; amino acids 466–690) (from UniProt P19686) (domain or fragment)
binds	sGC α N-terminal deletion (αΔN; amino acids 258–690) (from UniProt P19686) (domain or fragment)
